Results: the supplement of paper PMC10849652
Some of the results follow.

The chains behind the UniProt entries cited, without tags or fusion partners. Where a name states a change or a piece, a line headed by the entry shows the natural chain unless it says otherwise.
UniProt P15529: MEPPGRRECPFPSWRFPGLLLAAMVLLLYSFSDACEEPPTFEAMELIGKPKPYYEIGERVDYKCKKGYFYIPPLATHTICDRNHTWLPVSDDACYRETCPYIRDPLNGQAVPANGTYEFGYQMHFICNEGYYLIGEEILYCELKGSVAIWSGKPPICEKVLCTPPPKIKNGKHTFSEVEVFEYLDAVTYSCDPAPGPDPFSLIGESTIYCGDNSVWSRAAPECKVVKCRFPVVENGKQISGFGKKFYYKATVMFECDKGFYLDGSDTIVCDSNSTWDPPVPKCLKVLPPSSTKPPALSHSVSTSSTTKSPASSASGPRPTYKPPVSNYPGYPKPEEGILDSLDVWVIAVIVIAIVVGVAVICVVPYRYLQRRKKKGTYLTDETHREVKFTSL
UniProt Q13185: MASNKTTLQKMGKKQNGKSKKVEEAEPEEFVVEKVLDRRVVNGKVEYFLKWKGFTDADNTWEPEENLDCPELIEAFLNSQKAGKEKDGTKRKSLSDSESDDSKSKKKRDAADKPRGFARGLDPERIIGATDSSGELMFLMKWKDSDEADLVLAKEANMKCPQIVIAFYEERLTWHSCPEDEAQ
UniProt P42574: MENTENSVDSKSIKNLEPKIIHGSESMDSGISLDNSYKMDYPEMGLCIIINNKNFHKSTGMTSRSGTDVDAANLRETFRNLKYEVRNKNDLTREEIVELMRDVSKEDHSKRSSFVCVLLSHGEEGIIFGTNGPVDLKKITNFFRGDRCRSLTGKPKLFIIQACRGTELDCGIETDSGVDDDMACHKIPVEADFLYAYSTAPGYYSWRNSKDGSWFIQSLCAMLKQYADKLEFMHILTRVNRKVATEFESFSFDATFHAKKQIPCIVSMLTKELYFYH
UniProt P14635, whole entry, looked up: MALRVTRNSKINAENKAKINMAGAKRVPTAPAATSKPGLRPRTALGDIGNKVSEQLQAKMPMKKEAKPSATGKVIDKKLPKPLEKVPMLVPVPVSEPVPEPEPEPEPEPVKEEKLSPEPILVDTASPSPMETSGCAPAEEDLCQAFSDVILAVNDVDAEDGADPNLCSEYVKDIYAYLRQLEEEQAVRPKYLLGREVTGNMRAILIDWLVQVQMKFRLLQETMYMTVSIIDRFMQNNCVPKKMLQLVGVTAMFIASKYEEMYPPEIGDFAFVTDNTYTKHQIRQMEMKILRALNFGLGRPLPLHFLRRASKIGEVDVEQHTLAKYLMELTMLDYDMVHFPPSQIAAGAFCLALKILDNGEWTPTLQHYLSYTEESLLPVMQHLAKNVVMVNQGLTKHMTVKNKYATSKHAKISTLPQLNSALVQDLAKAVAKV
UniProt P04040: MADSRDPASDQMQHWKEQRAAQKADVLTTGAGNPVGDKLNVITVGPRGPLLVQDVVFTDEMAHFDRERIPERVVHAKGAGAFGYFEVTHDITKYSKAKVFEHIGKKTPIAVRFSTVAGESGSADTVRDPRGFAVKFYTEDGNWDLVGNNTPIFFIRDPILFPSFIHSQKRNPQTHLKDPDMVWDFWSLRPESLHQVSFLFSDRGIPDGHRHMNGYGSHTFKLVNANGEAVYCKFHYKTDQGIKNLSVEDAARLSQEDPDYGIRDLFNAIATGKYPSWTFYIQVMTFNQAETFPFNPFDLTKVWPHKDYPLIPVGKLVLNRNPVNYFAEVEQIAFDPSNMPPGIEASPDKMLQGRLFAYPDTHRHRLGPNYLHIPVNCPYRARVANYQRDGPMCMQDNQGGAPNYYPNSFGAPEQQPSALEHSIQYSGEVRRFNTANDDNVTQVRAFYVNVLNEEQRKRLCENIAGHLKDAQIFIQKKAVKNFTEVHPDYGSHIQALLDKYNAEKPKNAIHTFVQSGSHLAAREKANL
UniProt P55211: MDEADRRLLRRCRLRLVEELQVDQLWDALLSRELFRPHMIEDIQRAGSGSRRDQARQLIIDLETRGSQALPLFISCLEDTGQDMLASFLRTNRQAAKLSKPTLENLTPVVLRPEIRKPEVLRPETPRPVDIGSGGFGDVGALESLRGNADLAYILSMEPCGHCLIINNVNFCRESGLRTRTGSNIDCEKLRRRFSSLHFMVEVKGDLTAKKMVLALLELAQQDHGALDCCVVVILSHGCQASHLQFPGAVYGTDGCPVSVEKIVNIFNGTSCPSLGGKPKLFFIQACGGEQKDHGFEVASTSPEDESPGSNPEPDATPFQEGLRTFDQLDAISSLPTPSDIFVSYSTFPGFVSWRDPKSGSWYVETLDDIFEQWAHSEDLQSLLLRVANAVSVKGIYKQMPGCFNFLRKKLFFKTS
UniProt Q08722, whole entry, looked up: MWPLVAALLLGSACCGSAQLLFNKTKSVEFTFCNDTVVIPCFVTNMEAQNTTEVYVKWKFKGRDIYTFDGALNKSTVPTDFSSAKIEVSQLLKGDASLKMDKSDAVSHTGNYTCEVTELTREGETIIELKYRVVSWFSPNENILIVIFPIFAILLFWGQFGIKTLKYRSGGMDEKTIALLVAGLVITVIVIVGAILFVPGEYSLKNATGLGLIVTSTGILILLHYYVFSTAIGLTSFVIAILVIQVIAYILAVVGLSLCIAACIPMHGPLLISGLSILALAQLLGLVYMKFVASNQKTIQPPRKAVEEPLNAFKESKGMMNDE
UniProt O75909: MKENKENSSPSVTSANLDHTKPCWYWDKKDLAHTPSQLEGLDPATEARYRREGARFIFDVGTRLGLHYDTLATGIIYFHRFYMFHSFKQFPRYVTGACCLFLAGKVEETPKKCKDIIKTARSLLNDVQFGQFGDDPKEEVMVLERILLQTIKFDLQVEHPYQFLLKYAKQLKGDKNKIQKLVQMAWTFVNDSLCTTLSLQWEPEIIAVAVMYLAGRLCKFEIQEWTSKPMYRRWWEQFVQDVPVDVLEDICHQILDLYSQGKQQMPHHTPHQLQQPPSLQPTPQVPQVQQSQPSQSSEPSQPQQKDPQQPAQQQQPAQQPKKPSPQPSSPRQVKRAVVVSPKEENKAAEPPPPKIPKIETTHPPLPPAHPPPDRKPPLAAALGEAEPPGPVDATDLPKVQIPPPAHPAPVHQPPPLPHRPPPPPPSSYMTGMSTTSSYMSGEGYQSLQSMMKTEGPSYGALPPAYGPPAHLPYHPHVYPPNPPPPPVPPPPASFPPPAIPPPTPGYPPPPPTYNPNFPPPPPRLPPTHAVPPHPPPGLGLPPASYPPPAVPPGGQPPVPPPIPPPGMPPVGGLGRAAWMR
UniProt Q8WUD4: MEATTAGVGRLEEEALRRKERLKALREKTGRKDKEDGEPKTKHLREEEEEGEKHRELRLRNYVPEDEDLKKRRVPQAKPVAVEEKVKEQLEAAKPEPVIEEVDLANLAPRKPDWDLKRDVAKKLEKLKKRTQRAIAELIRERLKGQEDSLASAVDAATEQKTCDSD
UniProt Q8N7R7: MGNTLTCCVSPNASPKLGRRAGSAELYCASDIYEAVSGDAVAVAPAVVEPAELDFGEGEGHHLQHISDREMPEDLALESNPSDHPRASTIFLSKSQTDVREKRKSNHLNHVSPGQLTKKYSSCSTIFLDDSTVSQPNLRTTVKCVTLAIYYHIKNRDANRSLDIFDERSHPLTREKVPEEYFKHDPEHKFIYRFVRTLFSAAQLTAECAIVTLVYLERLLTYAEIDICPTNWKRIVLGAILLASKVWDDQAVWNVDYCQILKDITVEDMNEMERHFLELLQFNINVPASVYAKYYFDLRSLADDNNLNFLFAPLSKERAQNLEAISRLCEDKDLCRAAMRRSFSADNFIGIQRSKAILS
UniProt Q5RIA9: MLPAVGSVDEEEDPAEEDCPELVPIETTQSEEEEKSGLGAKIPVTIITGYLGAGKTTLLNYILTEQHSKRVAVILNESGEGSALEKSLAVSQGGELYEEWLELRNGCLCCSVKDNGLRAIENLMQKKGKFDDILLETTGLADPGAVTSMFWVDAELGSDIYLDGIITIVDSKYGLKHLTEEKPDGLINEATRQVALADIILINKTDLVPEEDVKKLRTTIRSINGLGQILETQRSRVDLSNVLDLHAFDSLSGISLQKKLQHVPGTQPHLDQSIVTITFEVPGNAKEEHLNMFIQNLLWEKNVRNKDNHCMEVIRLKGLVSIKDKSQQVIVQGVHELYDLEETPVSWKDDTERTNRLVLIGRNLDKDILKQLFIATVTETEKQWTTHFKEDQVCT
UniProt Q9HA77: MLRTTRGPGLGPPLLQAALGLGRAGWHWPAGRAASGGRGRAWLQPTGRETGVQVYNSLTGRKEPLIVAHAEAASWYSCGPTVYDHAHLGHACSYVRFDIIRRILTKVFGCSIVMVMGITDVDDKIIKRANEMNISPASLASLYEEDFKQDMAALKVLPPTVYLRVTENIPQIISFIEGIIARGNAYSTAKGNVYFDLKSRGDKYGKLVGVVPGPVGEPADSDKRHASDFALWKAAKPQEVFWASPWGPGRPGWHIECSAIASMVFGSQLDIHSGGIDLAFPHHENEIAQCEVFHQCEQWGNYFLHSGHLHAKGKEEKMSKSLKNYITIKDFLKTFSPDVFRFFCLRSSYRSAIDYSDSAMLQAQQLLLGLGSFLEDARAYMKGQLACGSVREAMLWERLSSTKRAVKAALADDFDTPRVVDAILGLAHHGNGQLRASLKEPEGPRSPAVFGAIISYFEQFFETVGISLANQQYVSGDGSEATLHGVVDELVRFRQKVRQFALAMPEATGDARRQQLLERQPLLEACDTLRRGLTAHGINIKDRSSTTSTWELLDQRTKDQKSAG
UniProt O95273: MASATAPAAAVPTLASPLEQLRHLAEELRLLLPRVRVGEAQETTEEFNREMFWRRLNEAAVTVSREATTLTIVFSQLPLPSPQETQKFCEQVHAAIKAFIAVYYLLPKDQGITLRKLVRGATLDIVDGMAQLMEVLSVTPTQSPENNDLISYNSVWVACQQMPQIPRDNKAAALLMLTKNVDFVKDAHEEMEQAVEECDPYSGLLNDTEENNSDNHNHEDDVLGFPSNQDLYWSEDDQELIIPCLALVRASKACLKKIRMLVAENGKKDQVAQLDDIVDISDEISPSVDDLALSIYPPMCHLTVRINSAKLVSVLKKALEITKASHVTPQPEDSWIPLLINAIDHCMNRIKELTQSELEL
UniProt P48509: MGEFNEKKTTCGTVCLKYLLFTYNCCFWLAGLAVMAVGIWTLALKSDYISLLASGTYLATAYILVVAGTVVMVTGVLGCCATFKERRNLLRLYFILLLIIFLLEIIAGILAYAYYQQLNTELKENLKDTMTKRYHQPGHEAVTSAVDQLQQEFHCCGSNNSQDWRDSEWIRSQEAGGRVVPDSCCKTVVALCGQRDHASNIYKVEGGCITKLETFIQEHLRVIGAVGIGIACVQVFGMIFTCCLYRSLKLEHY
UniProt Q16204: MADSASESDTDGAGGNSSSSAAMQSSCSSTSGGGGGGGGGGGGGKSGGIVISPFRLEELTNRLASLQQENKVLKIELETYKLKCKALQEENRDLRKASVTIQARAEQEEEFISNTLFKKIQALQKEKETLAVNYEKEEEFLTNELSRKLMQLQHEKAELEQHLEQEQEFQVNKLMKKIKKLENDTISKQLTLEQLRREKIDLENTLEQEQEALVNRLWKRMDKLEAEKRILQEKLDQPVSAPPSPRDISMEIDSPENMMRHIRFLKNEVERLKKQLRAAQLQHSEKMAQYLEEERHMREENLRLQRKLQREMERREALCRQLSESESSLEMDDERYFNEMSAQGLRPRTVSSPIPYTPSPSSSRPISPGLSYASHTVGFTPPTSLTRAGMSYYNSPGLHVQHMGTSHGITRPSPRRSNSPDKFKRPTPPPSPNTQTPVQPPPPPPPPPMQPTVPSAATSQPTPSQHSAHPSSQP
UniProt Q8IWD4: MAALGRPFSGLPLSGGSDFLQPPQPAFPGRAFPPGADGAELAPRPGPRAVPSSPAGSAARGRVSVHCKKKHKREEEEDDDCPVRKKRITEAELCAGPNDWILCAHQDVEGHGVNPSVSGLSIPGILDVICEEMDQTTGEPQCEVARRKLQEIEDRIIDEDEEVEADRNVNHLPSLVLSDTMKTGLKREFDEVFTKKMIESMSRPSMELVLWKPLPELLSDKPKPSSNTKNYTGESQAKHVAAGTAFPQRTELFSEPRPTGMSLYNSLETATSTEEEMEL
UniProt P48643, whole entry, looked up: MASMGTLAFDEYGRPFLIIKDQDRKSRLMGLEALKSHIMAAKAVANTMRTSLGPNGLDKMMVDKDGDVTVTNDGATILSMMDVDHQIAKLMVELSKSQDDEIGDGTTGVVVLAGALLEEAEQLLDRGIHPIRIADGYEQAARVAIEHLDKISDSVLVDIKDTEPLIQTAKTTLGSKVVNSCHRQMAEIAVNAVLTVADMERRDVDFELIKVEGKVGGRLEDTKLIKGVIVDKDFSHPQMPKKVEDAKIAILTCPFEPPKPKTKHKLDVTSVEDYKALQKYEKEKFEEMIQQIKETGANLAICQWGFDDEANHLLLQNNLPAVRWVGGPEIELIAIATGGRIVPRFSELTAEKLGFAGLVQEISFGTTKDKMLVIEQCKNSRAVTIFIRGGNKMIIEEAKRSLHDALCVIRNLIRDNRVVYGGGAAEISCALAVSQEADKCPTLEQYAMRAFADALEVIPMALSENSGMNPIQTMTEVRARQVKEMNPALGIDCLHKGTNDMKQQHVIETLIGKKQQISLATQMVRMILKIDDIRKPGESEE

compound: Cn1cc(-c2ccc3c(c2)CCN3C(=O)Cc2cccc(C(F)(F)F)c2)c2c(N)ncnc21; test: log2 fold change, soluble protein after heating vs DMSO (PISA); higher = thermal stabilisation; K562 lysate, 10 uM; active = over 0.2 and 3.5 SD of the protein, either way, in both replicates (recomputed)
In short: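 Quantification was by TMTpro 16plex LC-MS/MS with equalised channel sums, applied to the supernatant after 21,000xg for 90 min. Samples were crude K562 extract at 1 mg/mL protein in PBS pH 7.4 with 1 mM MgCl2, treated with 10 μM compound for 30 min, heated for 3 min across 48°C-58°C, pooled and brought to 0.5% NP-40 at 4°C. Values are log-two fold changes in thermal stability relative to solvent controls, from duplicates.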

log2 fold change, inactive:
CD46 isoform 2 (UniProt P15529) -0.081
CCNB2 (UniProt O95067) -0.046
CBX3 (UniProt Q13185) -0.097
CCT2 (UniProt P78371) -0.003
CASP3 (UniProt P42574) 0.008
CCNB1 (UniProt P14635) -0.021
CAT (UniProt P04040) -0.017
CCT6A (UniProt P40227) 0.001
CASP9 (UniProt P55211) -0.013
CCDC58 (UniProt Q4VC31) -0.011
CD47 (UniProt Q08722) 0.029
CCNK isoform 4 (UniProt O75909) 0.003
CCDC12 (UniProt Q8WUD4) 0.001
CCDC93 (UniProt Q567U6) 0.001
CBX4 (UniProt O00257) 0.022
CCDC25 (UniProt Q86WR0) -0.013
CCDC88A (UniProt Q3V6T2) 0.039
CCDC88C (UniProt Q9P219) 0.026
CCDC22 (UniProt O60826) -0.006
CCDC97 (UniProt Q96F63) 0.009
CCNYL1 (UniProt Q8N7R7) -0.003
CBLB (UniProt Q13191) 0.095
CAVIN1 (UniProt Q6NZI2) -0.022
CBWD5 (UniProt Q5RIA9) -0.005
CARS2 (UniProt Q9HA77) 0.046
CCAR1 (UniProt Q8IX12) -0.006
CCNDBP1 (UniProt O95273) 0.071
CCS (UniProt O14618) 0.024
CD151 (UniProt P48509) 0.009
CCDC6 (UniProt Q16204) 0.001
CCDC117 (UniProt Q8IWD4) 0.011
CCT5 (UniProt P48643) 0.012
CARHSP1 (UniProt Q9Y2V2) -0.04

Quoted at random: two entries already listed
log2 fold change, inactive:
CCDC88C (UniProt Q9P219) 0.026
CARS2 (UniProt Q9HA77) 0.046
